Laboratory results reported in patent publication US12576075B2, “Combination therapies for treating cancer” (Institute For Cancer Research, priority 2018, dated 2026).
At least one compound was matched to its structure with a doubt left.

Assays:
[1] = tested on: 786-O RCC cells; test: Cell viability, […]-BLUE assay, 786-O; format: cell-based, human; design: dose or concentration left out as unconfirmed; conditions: 72 hours
Method: (§1) Treatment with lonafarnib can reinstate sensitivity of RCC cells to TKIs. Pharmacological inhibition of FTase enhances the antitumor activity of sunitinib. Referring to FIG. 3, in Panel A, PNX0010 and 786-O RCC cells were treated with various combinations of lonafarnib ([…]), sunitinib ([…]), and pazopanib ([…]) for 72 hours. Cell viability was examined using Blue […]-BLUE® assay (PROMEGA®). In Panel B, 786-O and PNX0010 RCC cells were treated with lonafarnib ([…]) and/or sunitinib ([…]) for 24 hours. DNA fragmentation was examined by the APO-BRDU kit (The Phoenix Flow Systems) followed by flow cytometry analysis.

[2] = tested on: PNX0010 RCC cells; test: Cell viability, […]-BLUE assay, PNX0010; format: cell-based, human; design: dose or concentration left out as unconfirmed; conditions: 72 hours
Method: as §1

[3] = tested on: PNXC0010 RCC tumors; format: in vivo; conditions: PNX0010 subcutaneous xenografts, C.B17/lcrscid mice, 40 mg/kg each drug, orally 3 times/week
Method: PNX0010 subcutaneous xenografts were established in 6 week old male C.B17/lcrscid mice. The mice were treated orally 3 times/week with (i) 10% 2-hydroxypropyl-b-cyclodextrin in PBS (control); (ii) sunitinib (40 mg/kg); (iii) lonafarnib (40 mg/kg); or with sunitinib and lonafarnib combined (n=5 mice/group). Tumor volumes were calculated by the formula: (volume=0.52×(width)2×length).

## CCN(CC)CCNC(=O)c1c(C)[nH]c(/C=C2\C(=O)Nc3ccc(F)cc32)c1C [Sunitinib, sunitinib]
[1]
  Effect on cell viability: modest effect
[2]
  Effect on cell viability: modest effect
[3]
  Growth of xenograft tumors (tumor volume): moderate decrease
